Article PMC8048564
For at least one entry, the source does not settle the construct or the ends of the probe. Negatives hold for the conditions tested.

Test system: PpnGRF5-1
Assay: EMSA
Details: recombinant protein, protein details: GST (N-terminal, pGEX-KG)
[1] = mutant probe, legend also mentions 50x/100x unlabeled probe and mutant competitors

Row | Sequence | binding result [1] | binding result (label: biotin)
1 | AATCAACCTTTGTTCCGACCAATCTTCGCTACTCCCAAGTGTGATTCCATATAAGAGCTC (double strand) [PagCKX1p-2 mutant probe] | no binding | –
2 | ACCTTTTTGGTGTTTCCCGCATTCAAACTGTCAGCCTCAAGTTCACAGTTTCTCCCCTTT (double strand) [PagCKX1p-1 probe (-1710 site)] | – | binds
3 | ACCTTTTTGGTGTTTCCCGCATTCAAACGCTACTCCTCAAGTTCACAGTTTCTCCCCTTT (double strand) [PagCKX1p-1 mutant probe] | no binding | –
4 | AATCAACCTTTGTTCCGACCAATCTTCTGTCAGCCCAAGTGTGATTCCATATAAGAGCTC (double strand) [PagCKX1p-2 probe (+60 site)] | – | binds
